In article PMC9532399, “The lysosomal transporter TAPL has a dual role as peptide translocator and phosphatidylserine floppase” (Nature Communications, 2022):
These are yes or no findings as the source states them, for the method shown.

Target: T1, mouse TAPL truncation mutant devoid of the N-terminal 142 residues (ΔTMD0) (mouse) (UniProt Q9JJ59)
T1 sequence: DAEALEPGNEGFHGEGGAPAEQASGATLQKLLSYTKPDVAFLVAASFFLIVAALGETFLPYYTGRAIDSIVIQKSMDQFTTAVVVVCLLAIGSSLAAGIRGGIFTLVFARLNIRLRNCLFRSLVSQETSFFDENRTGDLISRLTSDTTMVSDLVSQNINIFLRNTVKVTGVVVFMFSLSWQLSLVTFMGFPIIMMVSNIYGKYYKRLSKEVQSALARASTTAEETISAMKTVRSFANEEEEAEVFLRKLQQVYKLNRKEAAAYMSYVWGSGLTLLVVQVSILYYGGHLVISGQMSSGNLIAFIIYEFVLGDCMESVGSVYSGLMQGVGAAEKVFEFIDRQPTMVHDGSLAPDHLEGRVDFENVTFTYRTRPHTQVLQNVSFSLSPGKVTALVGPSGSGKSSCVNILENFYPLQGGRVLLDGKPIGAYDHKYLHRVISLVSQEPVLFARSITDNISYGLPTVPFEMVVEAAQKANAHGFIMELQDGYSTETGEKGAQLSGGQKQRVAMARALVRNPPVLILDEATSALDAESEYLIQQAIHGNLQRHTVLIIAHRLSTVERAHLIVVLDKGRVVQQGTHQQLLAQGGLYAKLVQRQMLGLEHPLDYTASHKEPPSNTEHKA
Experiment: condition: only with Mg2+/ADP·BeF3 (outward-facing state); 1 mM peptide; cryo-EM structure; ΔTMD0 in nanodiscs of E. coli polar lipids with 1 mM 9-mer peptide, 2 mM ATP, 2 mM MgCl2, 8 mM NaF, 2 mM BeSO4, 37 °C for 10 min; outward-facing ADP·BeF3-bound, 3.2 Å; both purified

- binding: no binding
B1: 9-mer peptide RRYQKSTEL (peptide)
peptide: RRYQKSTEL
notes: short synthetic peptide known to be transported by human TAPL; source: synthetic peptide (ANYGEN Co., Ltd.)
